# Values quoted from earlier work, collected in patent US7326551B2, “Cloning and sequencing of pyruvate decarboxylase (PDC) genes from bacteria and uses therefor” (University of Florida Research Foundation, Inc., priority 2001, dated 2008).
# For at least one compound, name, drawing or mass did not settle the structure.
# Key:
# [1] = system: Zymomonas mobilis pyruvate decarboxylase (ZmoPDC) variant His113 to Lys; conditions: His113 modified to Lys, vs ZmoPDC; cited from earlier work
# [2] = system: Zymomonas mobilis pyruvate decarboxylase (ZmoPDC) variant His113 to Arg; conditions: His113 modified to Arg, vs ZmoPDC; cited from earlier work
structure (smiles),measurement,setting,value
CC(=O)C(=O)O [pyruvate],increase in affinity for pyruvate,[1],over 20 fold
same,increase in affinity for pyruvate,[2],over 20 fold
